Measurements reported in PubChem BioAssay AID445 (National Center for Advancing Translational Sciences (NCATS), 2006).
The list shows a part of the results. Shown are side measurements of this screen, not its main read-out; they come without a call. Most of these compounds were active or inconclusive in the main read-out, so they are no random draw. The note in brackets gives the kind of curve behind each potency; many fits are weak.

Test: IkB Signaling
Details: ABC-DLBCL IkBa-CBG/CBR dual luciferase ratio (green luciferase fused to IkBa over red control in OCI-Ly3 lymphoma cells), 4 h
In short: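 Curves were fitted separately to fusion (green), unfused (red) and ratio luminescence, then classed by r2, magnitude and activity. Cells: OCI-Ly3, 4 h compound plus doxycycline at 37C; 10 uM MG-132 defined full response.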

[1] = measured here: control luc red channel unless noted
[2] = measured here: IkB-luc green channel
[3] = measured here: control luc red channel

SMILES: CCCC(c1nnnn1Cc1ccc(OC)cc1)N1CCN(c2ccccc2OC)CC1 (stereo unspecified)
- AC50 [1]: 31.6 µM [falling, single point]

SMILES: COC(=O)c1cc2oc3ccccc3c2n1Cc1nc(-c2cccc(Cl)c2)oc1C
- AC50 [1]: 2 µM [rising, partial curve]

SMILES: Cc1ccc(-n2nc3c(N4CCC(C(=O)N5CCC(C)CC5)CC4)nnc(C)c3c2C)cc1
- AC50 [1]: 5.01 µM [falling, single point]

SMILES: COc1cc(OC)cc(C(=O)Nc2ccc(S(=O)(=O)N3CCCCC3c3cccnc3)cc2)c1 (stereo unspecified)
- AC50 [1]: 31.6 µM [falling, partial curve]

SMILES: O=C(Nc1cccc(Cl)c1Cl)c1cc(S(=O)(=O)N2CCC3(CC2)OCCO3)ccc1F
- AC50 [1]: 31.6 µM [falling, partial curve, poor fit]

SMILES: N#CC1=C(N)N(c2ccccc2)C2=C(C(=O)CCC2)C1c1cccs1 (stereo unspecified)
- AC50 [1]: 1 µM [falling, full curve]

SMILES: COc1ccc(-c2noc(CN3CCC(Cc4ccccc4)CC3)n2)cc1
- AC50 [1]: 15.8 µM [falling, partial curve]

SMILES: CCOc1ccccc1N1CC(c2nc3ccccc3n2CCOc2ccc(OC)cc2)CC1=O (stereo unspecified)
- AC50 [1]: 25.1 µM [falling, single point]

SMILES: CC(=O)N(Cc1cccnc1)c1nc2c(C)cc(C)cc2s1
- AC50 [1]: 10 µM [rising, partial curve]

SMILES: O=C(O)CCc1ccc(-c2ccc(Br)cc2)o1
- AC50 [2]: 39.8 µM [rising, single point]
- AC50 [3]: 20 µM [falling, partial curve]

SMILES: COc1ccc(CNC(=O)c2cc(-c3cccs3)nc3ccccc23)c(OC)c1
- AC50 [1]: 6.31 µM [falling, full curve]

SMILES: c1ccc2c(c1)nc(N1CCOCC1)c1nnnn12
- AC50 [1]: 1 µM [falling, full curve]

SMILES: Cc1ccc(-c2nc3ccccn3c2Nc2c(C)cccc2C)o1
- AC50 [1]: 20 µM [falling, partial curve]

SMILES: Cc1nnc(N2CCCC(C(=O)Nc3ccccc3C(F)(F)F)C2)c2nn(-c3ccccc3)c(C)c12 (stereo unspecified)
- AC50 [1]: 12.6 µM [falling, partial curve]

SMILES: CCOc1ccccc1-c1nc(-c2cc3ccc(C)cc3[nH]c2=O)no1
- AC50 [1]: 12.6 µM [falling, partial curve]

SMILES: CC(C)Cn1c(=O)c2sccc2n2c(CCCC(=O)NCC(C)c3ccccc3)nnc12 (stereo unspecified)
- AC50 [1]: 20 µM [falling, partial curve]

SMILES: COc1ccc(OC)c(NC(=O)Cc2c(C(=O)O)[nH]c3ccc(Cl)cc23)c1
- AC50 [1]: 12.6 µM [falling, partial curve]

SMILES: Cc1ccc(C)c(N2CCN(C(=O)c3cc4c(=O)n(Cc5cccnc5)ccc4nc3C)CC2)c1
- AC50 [1]: 25.1 µM [falling, single point]

SMILES: O=C(c1ccc(Cl)cc1)N1CCCCC1CCN1CCOCC1 (stereo unspecified)
- AC50 [1]: 3.98 µM [rising, partial curve]

SMILES: Cc1cccc(C(=O)Nc2c(-c3ccc(F)cc3)nc3ccccn23)c1
- AC50 [1]: 15.8 µM [falling, partial curve]

SMILES: CCn1c(=O)c2cc(C(=O)Nc3cc(C)c(Cl)cc3OC)sc2c2ccccc21
- AC50 [1]: 0.794 µM [falling, full curve]

SMILES: CCOc1ccccc1C1CC(=O)NC(C)=C1C(=O)OC1CCCCCC1 (stereo unspecified)
- AC50 [1]: 25.1 µM [falling, single point]

SMILES: COc1ccc(NC(=O)C2CCCN(S(=O)(=O)c3cn(C)cn3)C2)cc1Cl (stereo unspecified)
- AC50 [1]: 7.94 µM [falling, partial curve]

SMILES: Cc1cccc(Oc2nc3ccccn3c(=O)c2/C=C(\C#N)c2nc3ccccc3s2)c1C
- AC50 [1]: 25.1 µM [falling, single point]

SMILES: COc1ccc(CCNC(=O)c2ccc3c(c2)CCN3S(=O)(=O)c2ccc(Cl)cc2)cc1
- AC50 [1]: 31.6 µM [falling, single point]

SMILES: Cc1cc(C)c(S(=O)(=O)Nc2cc(-c3cn4ccccc4n3)ccc2C)cc1C
- AC50 [1]: 25.1 µM [falling, single point]

SMILES: CCNC(=O)[C@@H]1O[C@@H](n2cnc3c(N)nc(NCCc4ccc(CCC(=O)O)cc4)nc32)[C@H](O)[C@@H]1O
- AC50 [2]: 0.0158 µM [rising, full curve, poor fit]
- AC50 [3]: 0.0158 µM [rising, full curve]

SMILES: CC(=O)c1ccc(NC2=NS(=O)(=O)c3ccccc32)cc1
- AC50 [1]: 0.316 µM [rising, full curve, poor fit]

SMILES: O=C(CSc1nnc(Cc2cccs2)n1-c1ccccc1)NC1CCCCC1
- AC50 [1]: 15.8 µM [falling, partial curve]

SMILES: COc1c(Cl)cc(C(=O)Nc2cccc(-c3nc4ccccc4[nH]3)c2)cc1Cl
- AC50 [1]: 5.01 µM [falling, partial curve]

SMILES: Cc1ccc(Cl)cc1N1CCN(C(=O)CN2C(=O)COc3ccc(S(=O)(=O)N4CCOCC4)cc32)CC1
- AC50 [1]: 12.6 µM [falling, partial curve]

SMILES: O=C(NCc1ccc(F)cc1)c1ccc(CSc2nc3ccncc3n2Cc2ccc(F)cc2)cc1
- AC50 [1]: 25.1 µM [falling, single point]

SMILES: CCOC(=O)c1c(Nc2cccc(O)c2)nnc(-c2ccccc2)c1-c1ccccc1
- AC50 [1]: 12.6 µM [falling, partial curve]

SMILES: C=CCn1c(SCC(=O)Nc2sc(C)c(C)c2C(=O)OCC)nnc1-c1sc(N)nc1C
- AC50 [1]: 20 µM [falling, partial curve]

SMILES: CN1CCc2ccccc2Cc2[nH]c3ccccc3c2CC1
- AC50 [1]: 20 µM [falling, partial curve]

SMILES: Cc1ccc2[nH]c(=O)c(C(c3nnnn3C3CCCC3)N(Cc3cccnc3)Cc3ccco3)cc2c1 (stereo unspecified)
- AC50 [1]: 25.1 µM [rising, partial curve] [measured here: IkB-luc green channel]

SMILES: CCOC(=O)C1=C(N)Oc2cc(O)ccc2C1c1cccnc1 (stereo unspecified)
- AC50 [1]: 39.8 µM [falling, single point]

SMILES: COc1ccc(OC)c(NC(=O)c2ccc(-c3nc(CSc4ccccc4)c(C)o3)cc2)c1
- AC50 [1]: 7.94 µM [falling, partial curve]

SMILES: COc1ccccc1CCNC(=O)c1ccc(NC(=O)N2CC(C)Sc3ccccc32)cc1 (stereo unspecified)
- AC50 [1]: 12.6 µM [falling, partial curve]
